# Laboratory results: the supplement of paper PMC10338343
# ± gives the standard deviation. The list shows a part of the results, in another mix than the full data. Many entries were measured with a wide error.
# System: MILI (PIWIL2) piRISC loaded with Kctd7 piRNA (26 nt)
# Test: pre-steady-state target cleavage rate (min^-1); MIWI and MILI are mouse PIWI proteins and EfPiwi is from a freshwater sponge; tags in brackets are library labels; higher = faster piRNA-guided slicing of the target
# Conditions: guide: Kctd7 piRNA 5'p-UGUUAAUCUCUCAGAGAAGGUGACAG; auxiliary factor: 500 nM mouse GTSF1
# Method: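 Cleave-'n-Seq: a library of target RNAs (target site embedded in constant flanks, ACAGCATTCCGCGTTAGTGATATCCG... 5' flank; DNA-blocked outside the site) at 0.1 nM was incubated with 1 nM active mouse MILI or MIWI piRISC (synthetic 5'-monophosphorylated piRNA guide) with or without 500 nM mouse GTSF1 at 33 °C for 1 min to 16 h. Uncleaved targets were sequenced and normalised to non-target controls, and the pooled three trials were fitted to a burst-and-steady-state model to give the pre-steady-state cleavage rate (min^-1; k3 is constrained to at most 1e-4). Sequence is the target site only; target names encode pairing extent (gX:gY) and contiguous / 1-mismatch / 2-mismatch / bulge geometry. Fits with R² ≤ 0 are excluded.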
row,Sequence,pre-steady-state target cleavage rate
1,UAGUGACAGUGCUUCUCUUGAGAGAUUAACA,0.000131 ± 0.024
2,UAGUGACAGUGGAACUCUCUCAGAUUAACA,0.000171 ± 0.022
3,UAGUCUGUCACCAACUCUGAGAGAUUAAGA,0.047 ± 0.0083
4,UAGUGACAGUGCUACUCUCAGAGAUUAACA,0.00114 ± 0.0042
5,UAGUGACUCACCUUCUCUGACUCAUAUUGA,0.00033 ± 0.023
6,UAGUGACACACCUUCUCUGACAGUUUAACA,0.00187 ± 0.0062
7,UAGUGACAGACCUUCUCUGAGACAUAAACA,0.000418 ± 0.02
8,UAGUGACACACCUUCUCUGAGACAUUAUCA,0.000721 ± 0.0098
9,UAGUGAGUGACCUUCUCUGAGAGAUUUUGA,0.00381 ± 0.0043
10,UAGUGACAGUGGUUCUCUCAGAGAUUUACA,0.000165 ± 0.036
11,UAGUGUGUCACCUUCUCUGAGACAUUAUCA,0.00447 ± 0.0049
12,UAGUGACAGUGGUUCUCUGAGAGAUUAAA,0.000548 ± 0.012
13,UAGUGACUCACCUAGACUGAGAGAUUAAGA,0.000272 ± 0.031
14,UAGUGAGUCACCUUCUCUGAGAGAUAUAACA,0.347 ± 0.046
15,UAGUGACAGUCCUUCUGAGAGAGAUUAAGA,0.00252 ± 0.0034
16,UAGUGUGUCACCUUCGUCUGAGAGAUUAACA,0.088 ± 0.012
17,UAGUGACAGUGGUUCUCUGAGAUAUUAACA,0.000313 ± 0.0096
18,UAGUGACAGUGGAUCUCUGAGAGCAUUAACA,0.000117 ± 0.028
19,UAGUGACACACCUUCUCUGACUCAUAUUGA,0.00032 ± 0.021
20,UAGUCUGUCACCUUCUGCUGAGAGAUUAACA,0.0816 ± 0.013
21,UAGUGACAGUCCUUCUCUCUGAGAUUAACA,0.00157 ± 0.0058
22,UAGUCUCUCACCAUCUCUGAGAGAUUAACA,0.0256 ± 0.0069
23,UAGUGACAGUGGUUCUUGAGAGAUUAACA,0.000782 ± 0.0099

row,Sequence,pre-steady-state target cleavage rate
1,UAGUGACAGUGCAUCUCUGAGUGAUUAACA,0.00148 ± 0.0042
2,UAGUGACAGUGGAAGAGUGAGAGAUUACCA,0.000127 ± 0.047
3,UAGUGACACACCUACUCUGAGUGAUUAACA,0.00121 ± 0.0075
4,UAGUGACAGUGCUUCUCUGAGAGAUUUUGA,0.000119 ± 0.024
5,UAGUGACUCACCUUCUCUGAGAGAAAAAGA,0.00188 ± 0.0056
6,UAGUGACAGUGCUUCUCUGAGAGUUUAAGA,0.000194 ± 0.017
7,UAGUGACAGACCUUCUCUGAGACAUUAUCA,0.000696 ± 0.013
8,UAGUGACUCACCUUCUCUGAGUGAUUUACA,0.000532 ± 0.012
9,UAGUGUGUCACCUUCUCUGAGAGAGUAACA,0.287 ± 0.056
10,UAGUGACAGUCGAUCUCUGAGAGAUUAAGA,0.00145 ± 0.004
11,UAGUGACUCUGCUUCUCUGAGAGAUUUUGA,0.00212 ± 0.004
12,UAGUGACAGUGGAAGUCUGAGAGAUUAACG [g2:g15:cont:t1G],0.0021 ± 0.0021
13,UAGUGACAGACCUUCUCUGACAGAUUAAGA,0.000119 ± 0.047
14,UAGUGACAGACCUUCUCUGACGAGAUUAACA,0.00291 ± 0.0043
15,UAGUGACAGUGGAAGUUCUGAGAGAUUAACA,0.000435 ± 0.008
16,UAGUGUGUCACCUUCUCUGAGAAAUUAACA,0.112 ± 0.019
17,UAGUGACAGUCCUUCUGCUGAGAGAUUAACA,0.000632 ± 0.01
18,UAGUGACAGACCUUCUCUGAGUCAUUAUGA,0.000217 ± 0.023
19,UAGUGACAGUGCUACUCUGAGAGAUUAAGA,0.00109 ± 0.0053
20,UAGUGACACACCUUCUCUGAGUCAUUAACA,0.00177 ± 0.006
21,UAGUGACAGUGGAACUUCUGAGAGAUUAACA,0.000348 ± 0.013
22,UAGUGACAGUGCUUCUGUCAGAGAUUAACA,0.00142 ± 0.008
23,UAGUCAUGUCACCUUCUCUGAGAGAUUAACA,0.238 ± 0.023

row,Sequence,pre-steady-state target cleavage rate
1,UAGUGACACACCUUCUCUGAGUGUUUAACA,0.000944 ± 0.0098
2,UAGUCUGACACCUUCUCUGAGAGAUUUUGA,0.00148 ± 0.0052
3,UAGUGACAGACCUUCUCUGACUCUAAUUGA [g11:g21:cont:t1A],0.000149 ± 0.029
4,UAGUGACAGUGGAAGAGACUCAGAUUAACC [g2:g9:cont:t1C],0.000412 ± 0.013
5,UAGUGACAGUGCUUCACUGAGAGUUUAACA,0.0013 ± 0.0056
6,UAGUGACUCACCUUCUCUCUGAGAUUUUGA,0.00108 ± 0.0094
7,UAGUCUGUCACCAUCACUGAGAGAUUAACA,0.11 ± 0.0083
8,UAGUGACAGUGGAAGACUGAGUCAUUAACA,0.000475 ± 0.0097
9,UAGUGAGUGACCUUGUCUGAGAGAUUAACA,0.0726 ± 0.014
10,UAGUGACUCACCUUCUCUGAGAGAAAUAGA,0.002 ± 0.0062
11,UAGUGACAGUGGAAGAGACACUCAUUAACA,0.000371 ± 0.016
12,UAGUCUGUGUGCUUCUCUGAGAGAUUAAGA,0.00145 ± 0.0028
13,UAGUGAGUCAGCUACUCUGAGAGAUUAACA,0.135 ± 0.01
14,UAGUGACAGUGCAUCUCUGAGAGUUUAACA,0.00108 ± 0.0066
15,UAGUGUGAGUCCUUCUCUGAGAGAUUUUGA,0.00162 ± 0.0052
16,UAGUGACAGACCUUCUGUGAGUGAUUAACA,0.00248 ± 0.0057
17,UAGUGACAGUGCAUCUCUCAGAGAUUAACA,0.00252 ± 0.0038
18,UAGUGUGUGCACCUUCUCUGAGAGAUUAACA,0.195 ± 0.021
19,UAGUGACUCACCUUCUCUGACAGAUUAUGA,0.00329 ± 0.0038
20,UAGUGACUCACCUUCUCUGAGACAAUAACA,0.00231 ± 0.0053
21,UAGUGACAGACCUUCUCUGAGAGAUUUAGA,0.00153 ± 0.0093
22,UAGUGACAGACCUACUCUGAGUGAUUAACA,0.00137 ± 0.0069
23,UAGUGACAGACCUUCUCUGAGAGUAUAUGA,0.000792 ± 0.013

row,Sequence,pre-steady-state target cleavage rate
1,UAGUGAGUCACCUUCUCUCAGAGUUUAACA,0.0248 ± 0.0099
2,UAGUGACACACCUUCUCUGAGACUAUAACA,0.000681 ± 0.011
3,UAGUGACAGUGGACCUCUGAGAGAUUAACA,0.00174 ± 0.0044
4,UAGUGUGUCACCUACUCUGAGAGAUUAUGA,0.0343 ± 0.015
5,UAGUGACACACCAACUCUGAGAGAUUUUGA,0.000153 ± 0.019
6,UAGUGACAGACCUUCUCUGAGAGAUAAUCA,0.00507 ± 0.0052
7,UAGUGACUCACCUUCUCUGAGGAGAUUAACA,0.00396 ± 0.0044
8,UAGUGACAGUGGAAGAGACAGAGAUUAUACA,0.000308 ± 0.027
9,UAGUGACACACCUUCUCUGAUGAGAUUAACA,0.00949 ± 0.0043
10,UAGUGACACACCUUCUCACAGAGAUUAUGA,0.00158 ± 0.0073
11,UAGUGACAGUGGAAGUCUGAGAGAUUAACU [g2:g15:cont:t1U],0.00103 ± 0.0037
12,UAGUGUGUCACCUUCUCUGAGACUAUAACA,0.00359 ± 0.006
13,UAGUGACAGUGCUUCUCUGAGACGAUUAACA,0.00197 ± 0.0034
14,UAGUGACAGUGGAAGAGACAGAGAAUAUCA,0.000361 ± 0.019
15,UAGUGACUCACCUUCUCUGAGUGAUAAACA,0.000862 ± 0.0082
16,UAGUGACAGUCCUACUCUGAGUGAUUAACA,0.000873 ± 0.0076
17,UAGUGUGUCACCUUCUGUGAGUGAUUAACA,0.00317 ± 0.0049
18,UAGUGUGUCACGAUCUCUGAGAGAUUUUGA,0.00172 ± 0.0062
19,UAGUGACAGUCGUUCUCUGAGACAUUAACA,0.000881 ± 0.0093
20,UAGUGACUCACCUUCUCUGAGACAUUUACA,0.00258 ± 0.0046
21,UAGUCUGUCACCUUCUCUGUGAGUUUAACA,0.0314 ± 0.0059

# Rewritten with tabs: entries from further up.
row	Sequence	pre-steady-state target cleavage rate
9	UAGUGAGUGACCUUCUCUGAGAGAUUUUGA	0.00381 ± 0.0043
13	UAGUGACAGACCUUCUCUGACAGAUUAAGA	0.000119 ± 0.047
13	UAGUGAGUCAGCUACUCUGAGAGAUUAACA	0.135 ± 0.01
13	UAGUGACAGUGCUUCUCUGAGACGAUUAACA	0.00197 ± 0.0034
15	UAGUGACUCACCUUCUCUGAGUGAUAAACA	0.000862 ± 0.0082
